# According to PubChem BioAssay AID2549 (National Center for Advancing Translational Sciences (NCATS), 2010):
# Amino acid sequences for entries named in this document (tags omitted). A change or cut given only in a name is not applied to a line headed by its entry.
# UniProt P46063: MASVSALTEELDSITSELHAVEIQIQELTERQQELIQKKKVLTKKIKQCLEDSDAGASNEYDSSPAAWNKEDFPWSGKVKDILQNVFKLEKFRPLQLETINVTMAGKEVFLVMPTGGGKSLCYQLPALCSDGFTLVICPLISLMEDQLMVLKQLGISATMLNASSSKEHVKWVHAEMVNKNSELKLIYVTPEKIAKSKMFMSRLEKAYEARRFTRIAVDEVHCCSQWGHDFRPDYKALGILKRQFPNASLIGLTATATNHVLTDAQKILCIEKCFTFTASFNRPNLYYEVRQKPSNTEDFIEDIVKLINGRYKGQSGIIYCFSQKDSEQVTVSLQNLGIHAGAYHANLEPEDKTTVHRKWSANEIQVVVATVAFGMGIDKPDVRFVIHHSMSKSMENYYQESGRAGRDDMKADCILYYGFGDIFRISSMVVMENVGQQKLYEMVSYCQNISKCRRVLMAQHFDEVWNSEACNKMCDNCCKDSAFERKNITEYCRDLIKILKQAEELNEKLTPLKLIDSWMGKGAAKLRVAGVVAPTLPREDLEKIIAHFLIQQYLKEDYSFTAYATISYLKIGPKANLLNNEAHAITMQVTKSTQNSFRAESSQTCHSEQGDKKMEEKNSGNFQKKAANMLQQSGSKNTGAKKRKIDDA
# “And” between values parts separate entries of the source, which are not always exact repeats. Equal entries are not always repeated. Among all 240,000 compounds or so, about 1,300 (0.54%) were called active. The shares of active, inactive and inconclusive entries below differ from those in the screen. Calls follow the shape of the dose curve; as a rule, active = well fitted inhibition curve with a large enough effect; inconclusive = small, poorly fitted or top-dose-only effect; inactive = flat fitted curve, though single readings scatter. A potency beside an inconclusive call is a rough fit, not a confirmed value. *1 amine or outer side, *2 acyl side, *3 side chain or, on linkers, in order; H or OH if unused. Where a SMILES comes first, the peptide text is derived from it. Bridges are numbered along the chain shown (N, C = ends). Roman numbers before positions name the chains, in order. [ ]: non-standard residue; d: D form. Actinocin(9to1) = Cc1c2oc3c(C)ccc(C(=O)[*:1])c3nc-2c(C(=O)[*:2])c(N)c1=O; NMeV = CN[C@H](C(=O)O)C(C)C; Sar = CNCC(=O)O
# Target: ATP-dependent DNA helicase Q1 (Homo sapiens) (UniProt P46063)
# Assay: qHTS Assay for Inhibitors of RecQ-Like Dna Helicase 1 (RECQ1); also: nearly all actives have a fitted effect of over 30% in size;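 as to activity, negative = inhibition: plate controls were vehicle for no effect and no enzyme for full effect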
# Conditions: RECQ1 DNA unwinding, red fluorescence kinetic read; activity, negative = inhibition: at 57.3 µM (top of the series); series mostly up to 57.3 µM
# Summary of the method: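 RECQ1T1 50 nM; forked duplex (20 bp + 30-nt ss tails) 200 nM, ATP 2 mM final; pH 8.0, 2 mM MgCl2, 2.5 ug/ml poly(dI-dC); 15 min compound preincubation; discontinuous kinetic read over 2 h at RT.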
# Potency is read from the fitted curve at half-maximal effect.
Compound,Potency,outcome,"activity, negative = inhibition"
CC(C)(CS(=O)(=O)[O-])NC(=O)CC[N+](C)(C)CCO,active: 1.41 µM,,
Cc1ncc(CO)c(/C=N/NC(=O)c2cc(O)c(O)c(O)c2)c1O,active: 14.1 µM,,
Cc1c2c(=O)n(-c3nc4ccccc4s3)nc-2cc(O)n1Cc1ccccc1,active: 22.4 µM,,
CC(C)(C)/C(O)=C/c1nc2ccccc2oc1=O,,inactive,
Cc1ccc(-n2nc(-c3ccco3)cc2C(=O)NCc2cccnc2)cc1,"inconclusive: 20 µM [inhibitor, partial curve]",,
Cc1cccc(CCN(CC(=O)NC(C)(C)C)C(=O)c2csnn2)c1,,inactive,
O=C(Nc1ccccc1)C1CCCN(S(=O)(=O)c2ccc(-n3cnnn3)cc2)C1 (centres undefined),"inconclusive: 0.0631 µM [inhibitor, full curve, poor fit]",,
Cc1nc2ccccc2nc(C)c1=NOCc1cccc(F)c1,,,inactive: -0.212%
CCN(CC)CCOc1c(Br)ccc2c1sc1nc3n(c(=O)c12)CCC3,"inconclusive: 35.5 µM [inhibitor, single point]",,
Cc1cc(CSc2ccccc2)ccc1NC(=O)COc1ccccc1,"inconclusive: 39.8 µM [inhibitor, single point]",,
CC(=O)NC(=S)Nc1ccc(NC(=S)NC(=O)/C=C/c2ccco2)cc1,"inconclusive: 35.5 µM [inhibitor, single point]",,
CCOC(=O)C(Oc1ccc2c(-c3ccccc3)cc(=O)oc2c1)c1ccccc1 (centres undefined),"inconclusive: 39.8 µM [inhibitor, single point]",,
Oc1ccc(N2CCN(c3nc(-c4cccs4)nc4ccccc34)CC2)cc1,"inconclusive: 35.5 µM [inhibitor, single point]",,
O=C(CCN1CCC(c2ccccc2)C1)c1ccccc1 (centres undefined),,inactive,
O=C(O)c1c2c(nc3ccc(S(=O)(=O)N4CCC(C(=O)N5CCCCC5)CC4)cc13)CCCC2,"inconclusive: 39.8 µM [inhibitor, single point]",,
COc1ccc(CCn2c(N)c(C(=O)NCc3ccco3)c3nc4ccccc4nc32)cc1OC,"inconclusive: 35.5 µM [inhibitor, single point]",,
O=S1(=O)C=CC(Nc2ccccc2)C1 (centres undefined),"inconclusive: 0.794 µM [inhibitor, full curve]",,
CCCCN(C(=O)CN1CC(C)OC(C)C1)c1c(N)n(CC(C)C)c(=O)[nH]c1=O (centres undefined),,,inactive: -4.94%
CCOc1nc(Nc2ccc(OC)c(Cl)c2)nc(N2CCN(c3ccc(OC)cc3)CC2)n1,"inconclusive: 0.178 µM [inhibitor, full curve, poor fit]",,
CCOC(=O)c1sc(Nc2ccc(OCC)cc2)nc1C,,,inactive: -4.71%
Cc1ccc(-c2ccc(CCC(=O)O)n2CC2CCCO2)cc1 (centres undefined),"inconclusive: 0.891 µM [inhibitor, single point]",,
"Cc1c2oc3c(C)ccc(C(=O)N[C@@H]4C(=O)N[C@H](C(C)C)C(=O)N5CCC[C@H]5C(=O)N(C)CC(=O)N(C)[C@@H](C(C)C)C(=O)O[C@@H]4C)c3nc-2c(C(=O)N[C@@H]2C(=O)N[C@H](C(C)C)C(=O)N3CCC[C@H]3C(=O)N(C)CC(=O)N(C)[C@@H](C(C)C)C(=O)O[C@@H]2C)c(N)c1=O (I: T[dV]P[Sar][NMeV] / II: T[dV]P[Sar][NMeV]; ester I:1-I:C, II:1-II:C; linker I:N-II:N via Actinocin(9to1))",active: 15.8 µM and active: 3.55 µM,,
CC1CCN(CCCCOc2ccc(Br)cc2)CC1,"inconclusive: 5.01 µM [inhibitor, partial curve]",,

# Reformatted as tab-separated lines: part of the list above
Compound	Potency	outcome	activity, negative = inhibition
O=C(Nc1ccccc1)C1CCCN(S(=O)(=O)c2ccc(-n3cnnn3)cc2)C1 (centres undefined)	inconclusive: 0.0631 µM [inhibitor, full curve, poor fit]		
Cc1nc2ccccc2nc(C)c1=NOCc1cccc(F)c1			inactive: -0.212%

# Next part:

Compound,Potency,outcome,"activity, negative = inhibition"
COc1ccc(NC(=O)Nc2ccc3nsnc3c2)cc1,,,inactive: -33.9%
Cn1c(=O)c2c(nc(NCc3ccc4c(c3)OCO4)n2Cc2ccccc2Cl)n(C)c1=O,"inconclusive: 1.41 µM [inhibitor, full curve, poor fit]",,
Cc1nc2nc(SCC(=O)NCCCN3CCOCC3)nn2c(C)c1Cc1ccccc1,"inconclusive: 2.82 µM [inhibitor, full curve]",,
O=C1NC(=S)/C(=C\c2ccc(-c3ccccc3Cl)o2)S1,"inconclusive: 28.2 µM [inhibitor, single point]",,
CCCS(=O)(=O)c1c(S(=O)(=O)CCC)c2c(N)cccn2c1C(=O)c1ccc(OC)cc1,"inconclusive: 39.8 µM [inhibitor, single point]",,
COc1ccc(C(C)(C)C)cc1NC(=O)CNc1cccc2ccccc12,"inconclusive: 28.2 µM [inhibitor, partial curve]",,
O=[N+]([O-])c1cccc(-c2nnc3ccc4ccccc4n23)c1,"inconclusive: 25.1 µM [inhibitor, partial curve]",,
O=C(Cn1nc2ccccc2n1)N/N=C/c1cc([N+](=O)[O-])ccc1O,,,inactive: 3.29%
Cc1cc(CN2C(=O)c3ccccc3C2=O)no1,"inconclusive: 10 µM [inhibitor, partial curve, poor fit]",,
Cc1ccc(S(=O)(=O)Nc2ccc(-c3nnc(SCc4ccccc4Cl)o3)cc2)cc1,,,inactive: -2.47%
COc1ccc(OC)c(NC(=O)c2ccc(OC3CSC3)cc2)c1,"inconclusive: 0.178 µM [inhibitor, full curve, poor fit]",,
O=c1[nH][nH]cc1C=Nc1ccccc1O,,,inactive: -4.48%
COc1ccc(/C=C2/SC(=S)N(c3ccc(S(=O)(=O)Nc4nccs4)cc3)C2=O)cc1,"inconclusive: 20 µM [inhibitor, single point]",,
O=C(C[n+]1cccc(CO)c1)Nc1nc2ccccc2s1,,inactive,
O=C(CCC(=O)Nc1nnc(C2CCCCC2)s1)NCc1ccccc1,"inconclusive: 0.158 µM [inhibitor, partial curve, poor fit]",,
CC(C)(C)OC(=O)C1=NOC2(C=CC(=O)C=C2)C1,inactive,,
CCN(CC)S(=O)(=O)c1cccc(C(=O)N/N=C/c2ccc(O)c(O)c2O)c1,"inconclusive: 5.01 µM [inhibitor, full curve]",,
Cc1ccc(CNC(=O)/C(C#N)=C\c2ccc(N(C)C)cc2)cc1,"inconclusive: 39.8 µM [inhibitor, single point]",,
C=CCN1C(=O)CS/C1=C(\C#N)S(=O)(=O)c1ccc(C)cc1,active: 20 µM,,
Cc1cc(=O)[nH]c(SCC(=O)/C=C2\N(C)c3ccccc3C2(C)C)n1,active: 31.6 µM,,
CCOc1ccc(C2C(C#N)=C(N)N(c3sc4c(c3C#N)CCCC4)C3=C2C(=O)CCC3)cc1 (centres undefined),"inconclusive: 35.5 µM [inhibitor, single point]",,
COC(=O)\C(C(C)=O)=C(/C=C/C=C/C=C/N(C)C)N(C)C,active: 25.1 µM,,
CCN(CC)c1ccc(NC(=O)COC(=O)c2cccs2)cc1,,inactive,

Compound,Potency,outcome,"activity, negative = inhibition"
CO[C@H]1COC(=O)[C@H](C)COC(=O)[C@@H](OCc2ccccc2)/C=C\[C@@H]1C,,,inactive: -1.22% [at 11.5 µM]
Cc1cc(C)n2nc(SCC(=O)Nc3ccccc3)nc2n1,,inactive,
CO/N=C(\C(=O)N[C@@H]1C(=O)N2C(C(=O)O)=C(COC(C)=O)CS[C@H]12)c1csc(N)n1 (stereo in doubt),"inconclusive: 22.4 µM [inhibitor, single point]",,
CCc1c(C)sc(NC(=O)OC)c1C(=O)N1CCCCC1,"inconclusive: 39.8 µM [inhibitor, single point]",,
CC1CCCCN1CC(=O)Nc1ccc2c(c1)OC(F)(F)O2 (centres undefined),"inconclusive: 6.31 µM [inhibitor, single point]",,
O=C(NCc1ccccn1)c1ccc2nc(-c3ccco3)c(-c3ccco3)nc2c1,active: 15.8 µM,,
CC(=O)Nc1ccc(SCC(c2ccccc2)N2CCN(C)CCC2=O)cc1 (centres undefined),,,inactive: -12.2%
CC1=CC(C)(C)Nc2ccc(OC(=O)c3ccco3)cc21,,,inactive: -0.0829%
COC(=O)CNC(c1ccccc1)c1cc(Cl)ccc1NC(=O)c1cccc(Cl)c1 (centres undefined),"inconclusive: 0.0891 µM [inhibitor, partial curve, poor fit]",,
COc1ccc(/C=C/C(=O)NC(C)CCc2ccccc2)cc1 (centres undefined),"inconclusive: 31.6 µM [inhibitor, partial curve, poor fit]",,
OCCNc1nc(Nc2ccc(O)cc2)nc2ccccc12,"inconclusive: 28.2 µM [inhibitor, single point]",,
CC(C)n1c(=S)[nH]c2scc(-c3cccs3)c2c1=O,active: 28.2 µM,,
Cc1ccc(-n2c(Cc3cccn3C)nnc2SCC(=O)NCc2ccco2)cc1,active: 22.4 µM,,
Nc1cccc2nsnc12,,,inactive: -1.45%
CCSc1ccccc1C(=O)NCc1ccco1,,,inactive: -2.09%
CC1=CN2C(=N)/C(=C/c3ccc([N+](=O)[O-])o3)C(=O)N=C2S1,active: 28.2 µM,,
CCOC(=O)C(CC)/C(C)=N\NC(=O)c1ccccc1O (centres undefined),"inconclusive: 8.91 µM [inhibitor, single point]",,
CN=C(Nc1cc(C)nn1CCC#N)c1ccccc1,"inconclusive: 0.398 µM [inhibitor, partial curve, poor fit]",,
CN(C)c1ccc(-c2nc(N(C)C)c3ccccc3n2)cc1,"inconclusive: 35.5 µM [inhibitor, single point]",,
Cc1ccc2oc(=O)c(/C=C(\O)C(C)(C)C)nc2c1,,,inactive: -24.7%
Cc1ccc(Cl)cc1N1CCN(C(=O)Cc2ccc(-n3c(=O)[nH]c4ccsc4c3=O)cc2)CC1,"inconclusive: 39.8 µM [inhibitor, single point]",,
CC(C)c1onc(-c2c(Cl)cccc2Cl)c1COc1ccc(/C=C/c2cccc(C(=O)O)c2)c(Cl)c1,active: 31.6 µM,,
CNc1ccccc(-c2ccc3cc4c(cc3n2)OCO4)c1=O,"inconclusive: 28.2 µM [inhibitor, single point]",,

# A draw from above in order of length of the SMILES, ascending.
Compound,Potency,outcome,"activity, negative = inhibition"
Nc1cccc2nsnc12,,,inactive: -1.45%
CCSc1ccccc1C(=O)NCc1ccco1,,,inactive: -2.09%
CN=C(Nc1cc(C)nn1CCC#N)c1ccccc1,"inconclusive: 0.398 µM [inhibitor, partial curve, poor fit]",,
OCCNc1nc(Nc2ccc(O)cc2)nc2ccccc12,"inconclusive: 28.2 µM [inhibitor, single point]",,
Cc1cc(C)n2nc(SCC(=O)Nc3ccccc3)nc2n1,,inactive,
CCOC(=O)C(CC)/C(C)=N\NC(=O)c1ccccc1O (centres undefined),"inconclusive: 8.91 µM [inhibitor, single point]",,
CC(C)n1c(=S)[nH]c2scc(-c3cccs3)c2c1=O,active: 28.2 µM,,
CC(=O)Nc1ccc(SCC(c2ccccc2)N2CCN(C)CCC2=O)cc1 (centres undefined),,,inactive: -12.2%
Cc1ccc(-n2c(Cc3cccn3C)nnc2SCC(=O)NCc2ccco2)cc1,active: 22.4 µM,,
O=C(NCc1ccccn1)c1ccc2nc(-c3ccco3)c(-c3ccco3)nc2c1,active: 15.8 µM,,
COC(=O)CNC(c1ccccc1)c1cc(Cl)ccc1NC(=O)c1cccc(Cl)c1 (centres undefined),"inconclusive: 0.0891 µM [inhibitor, partial curve, poor fit]",,
CC1=CN2C(=N)/C(=C/c3ccc([N+](=O)[O-])o3)C(=O)N=C2S1,active: 28.2 µM,,
CO[C@H]1COC(=O)[C@H](C)COC(=O)[C@@H](OCc2ccccc2)/C=C\[C@@H]1C,,,inactive: -1.22% [at 11.5 µM]
Cc1ccc(Cl)cc1N1CCN(C(=O)Cc2ccc(-n3c(=O)[nH]c4ccsc4c3=O)cc2)CC1,"inconclusive: 39.8 µM [inhibitor, single point]",,
CC(C)c1onc(-c2c(Cl)cccc2Cl)c1COc1ccc(/C=C/c2cccc(C(=O)O)c2)c(Cl)c1,active: 31.6 µM,,
CO/N=C(\C(=O)N[C@@H]1C(=O)N2C(C(=O)O)=C(COC(C)=O)CS[C@H]12)c1csc(N)n1 (stereo in doubt),"inconclusive: 22.4 µM [inhibitor, single point]",,
